Results from the supplement of paper PMC12819154, “High-throughput peptide-centric local stability assay extends protein–ligand identification to membrane proteins, tissues and bacteria” (Nature Structural & Molecular Biology, 2025).
This is one part of the list. Most values lie at the level of the controls, where differences are scatter.

Sequences of proteins named here, by UniProt entry; tags and fusion partners are left off. A change or cut given only in a name is not applied to a line headed by its entry.
UniProt P61460: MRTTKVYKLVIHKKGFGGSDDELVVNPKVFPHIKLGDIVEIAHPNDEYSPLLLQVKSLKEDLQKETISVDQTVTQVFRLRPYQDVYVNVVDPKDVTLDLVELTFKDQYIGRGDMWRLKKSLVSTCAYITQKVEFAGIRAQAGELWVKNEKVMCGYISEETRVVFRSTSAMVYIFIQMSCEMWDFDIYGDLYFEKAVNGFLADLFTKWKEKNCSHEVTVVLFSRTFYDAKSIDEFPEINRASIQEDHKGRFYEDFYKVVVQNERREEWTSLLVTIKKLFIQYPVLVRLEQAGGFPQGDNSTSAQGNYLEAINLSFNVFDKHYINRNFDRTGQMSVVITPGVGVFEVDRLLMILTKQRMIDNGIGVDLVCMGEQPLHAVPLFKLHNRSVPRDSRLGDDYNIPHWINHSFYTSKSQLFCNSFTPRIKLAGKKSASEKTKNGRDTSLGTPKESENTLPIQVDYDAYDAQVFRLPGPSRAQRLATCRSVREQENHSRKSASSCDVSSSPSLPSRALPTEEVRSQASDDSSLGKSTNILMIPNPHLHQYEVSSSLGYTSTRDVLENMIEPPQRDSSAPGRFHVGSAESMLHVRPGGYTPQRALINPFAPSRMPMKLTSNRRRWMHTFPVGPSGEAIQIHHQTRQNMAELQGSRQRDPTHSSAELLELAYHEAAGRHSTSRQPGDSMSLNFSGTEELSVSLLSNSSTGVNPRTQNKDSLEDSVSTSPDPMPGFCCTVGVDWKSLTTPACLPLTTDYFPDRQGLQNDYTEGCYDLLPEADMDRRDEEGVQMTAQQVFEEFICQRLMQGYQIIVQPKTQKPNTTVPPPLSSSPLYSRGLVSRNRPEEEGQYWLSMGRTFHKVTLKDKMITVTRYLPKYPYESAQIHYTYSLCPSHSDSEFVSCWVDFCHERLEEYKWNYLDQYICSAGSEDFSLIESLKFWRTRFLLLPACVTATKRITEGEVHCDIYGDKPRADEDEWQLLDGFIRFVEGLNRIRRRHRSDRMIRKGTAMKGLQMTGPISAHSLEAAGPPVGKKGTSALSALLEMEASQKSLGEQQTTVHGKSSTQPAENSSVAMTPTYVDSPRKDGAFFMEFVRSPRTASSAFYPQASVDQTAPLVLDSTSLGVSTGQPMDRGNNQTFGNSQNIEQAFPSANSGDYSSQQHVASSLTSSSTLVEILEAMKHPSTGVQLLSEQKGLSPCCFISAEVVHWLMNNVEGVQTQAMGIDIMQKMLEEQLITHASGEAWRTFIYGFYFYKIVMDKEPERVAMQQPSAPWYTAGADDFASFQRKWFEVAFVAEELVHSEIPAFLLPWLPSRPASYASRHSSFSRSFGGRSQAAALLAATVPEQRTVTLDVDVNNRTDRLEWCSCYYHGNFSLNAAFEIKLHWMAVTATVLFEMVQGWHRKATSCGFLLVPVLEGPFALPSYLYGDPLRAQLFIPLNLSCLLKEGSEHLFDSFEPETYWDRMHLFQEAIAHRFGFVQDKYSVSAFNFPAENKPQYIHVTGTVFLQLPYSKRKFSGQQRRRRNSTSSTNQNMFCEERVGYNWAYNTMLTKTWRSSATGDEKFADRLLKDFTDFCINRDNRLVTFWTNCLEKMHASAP
UniProt P58462, whole entry: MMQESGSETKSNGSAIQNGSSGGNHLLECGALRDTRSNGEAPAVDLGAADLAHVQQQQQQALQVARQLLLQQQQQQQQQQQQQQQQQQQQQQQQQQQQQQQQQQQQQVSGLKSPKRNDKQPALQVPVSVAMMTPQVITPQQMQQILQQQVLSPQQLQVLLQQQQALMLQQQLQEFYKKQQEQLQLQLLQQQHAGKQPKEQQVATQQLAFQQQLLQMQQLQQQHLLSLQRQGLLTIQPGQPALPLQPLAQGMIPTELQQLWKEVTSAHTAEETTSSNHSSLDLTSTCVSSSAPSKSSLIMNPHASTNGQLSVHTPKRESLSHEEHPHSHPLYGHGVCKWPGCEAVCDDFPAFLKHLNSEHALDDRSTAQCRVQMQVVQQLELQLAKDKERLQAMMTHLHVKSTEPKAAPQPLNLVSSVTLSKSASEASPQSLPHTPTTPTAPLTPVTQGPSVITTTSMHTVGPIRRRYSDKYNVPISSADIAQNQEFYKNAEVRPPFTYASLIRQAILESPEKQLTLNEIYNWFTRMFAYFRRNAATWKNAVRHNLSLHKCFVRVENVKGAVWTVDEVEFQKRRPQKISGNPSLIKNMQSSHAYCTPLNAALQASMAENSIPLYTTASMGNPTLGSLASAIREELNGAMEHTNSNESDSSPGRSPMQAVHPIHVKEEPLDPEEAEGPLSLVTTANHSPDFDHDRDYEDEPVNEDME
UniProt P58466: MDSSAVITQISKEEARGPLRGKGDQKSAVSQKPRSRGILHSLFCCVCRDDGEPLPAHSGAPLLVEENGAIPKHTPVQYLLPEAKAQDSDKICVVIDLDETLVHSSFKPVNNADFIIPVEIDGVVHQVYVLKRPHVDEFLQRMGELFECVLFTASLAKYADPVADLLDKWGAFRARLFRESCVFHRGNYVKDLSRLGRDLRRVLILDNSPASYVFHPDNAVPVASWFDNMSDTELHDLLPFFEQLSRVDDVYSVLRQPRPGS
UniProt P57780, whole entry: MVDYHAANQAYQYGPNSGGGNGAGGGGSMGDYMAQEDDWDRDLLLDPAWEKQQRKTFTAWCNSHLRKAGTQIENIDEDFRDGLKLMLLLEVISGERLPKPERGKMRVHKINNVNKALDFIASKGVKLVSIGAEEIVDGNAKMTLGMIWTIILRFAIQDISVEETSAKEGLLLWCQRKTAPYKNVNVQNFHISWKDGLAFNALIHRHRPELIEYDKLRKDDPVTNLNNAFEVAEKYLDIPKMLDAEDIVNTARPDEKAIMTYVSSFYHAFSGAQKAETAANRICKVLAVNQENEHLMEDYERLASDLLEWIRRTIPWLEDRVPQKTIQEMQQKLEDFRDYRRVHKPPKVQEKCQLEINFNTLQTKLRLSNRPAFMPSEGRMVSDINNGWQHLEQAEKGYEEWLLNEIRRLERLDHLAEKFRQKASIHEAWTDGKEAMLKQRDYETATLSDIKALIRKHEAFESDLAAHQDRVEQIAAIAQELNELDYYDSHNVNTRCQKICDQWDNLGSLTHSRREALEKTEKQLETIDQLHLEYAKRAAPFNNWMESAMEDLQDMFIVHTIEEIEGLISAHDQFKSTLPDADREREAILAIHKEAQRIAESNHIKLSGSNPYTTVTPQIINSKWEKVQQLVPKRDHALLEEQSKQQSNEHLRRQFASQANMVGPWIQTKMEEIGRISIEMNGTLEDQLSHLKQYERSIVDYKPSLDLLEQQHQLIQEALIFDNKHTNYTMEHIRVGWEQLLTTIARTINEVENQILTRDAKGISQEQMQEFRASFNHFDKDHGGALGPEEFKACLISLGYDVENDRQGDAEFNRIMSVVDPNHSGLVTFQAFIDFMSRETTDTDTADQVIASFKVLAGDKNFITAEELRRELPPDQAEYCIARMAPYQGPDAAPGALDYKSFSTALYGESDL
UniProt P62869, whole entry: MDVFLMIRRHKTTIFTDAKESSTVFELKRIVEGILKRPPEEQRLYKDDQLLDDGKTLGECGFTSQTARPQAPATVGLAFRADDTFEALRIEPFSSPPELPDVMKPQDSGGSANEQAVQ
UniProt P57776: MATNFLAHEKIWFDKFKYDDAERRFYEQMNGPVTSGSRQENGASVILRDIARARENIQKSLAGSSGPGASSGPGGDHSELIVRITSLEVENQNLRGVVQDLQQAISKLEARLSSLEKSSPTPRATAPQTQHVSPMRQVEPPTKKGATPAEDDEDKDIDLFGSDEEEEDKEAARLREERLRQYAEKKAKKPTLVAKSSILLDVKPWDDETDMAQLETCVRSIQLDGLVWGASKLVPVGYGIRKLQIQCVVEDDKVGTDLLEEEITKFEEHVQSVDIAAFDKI
UniProt P54320: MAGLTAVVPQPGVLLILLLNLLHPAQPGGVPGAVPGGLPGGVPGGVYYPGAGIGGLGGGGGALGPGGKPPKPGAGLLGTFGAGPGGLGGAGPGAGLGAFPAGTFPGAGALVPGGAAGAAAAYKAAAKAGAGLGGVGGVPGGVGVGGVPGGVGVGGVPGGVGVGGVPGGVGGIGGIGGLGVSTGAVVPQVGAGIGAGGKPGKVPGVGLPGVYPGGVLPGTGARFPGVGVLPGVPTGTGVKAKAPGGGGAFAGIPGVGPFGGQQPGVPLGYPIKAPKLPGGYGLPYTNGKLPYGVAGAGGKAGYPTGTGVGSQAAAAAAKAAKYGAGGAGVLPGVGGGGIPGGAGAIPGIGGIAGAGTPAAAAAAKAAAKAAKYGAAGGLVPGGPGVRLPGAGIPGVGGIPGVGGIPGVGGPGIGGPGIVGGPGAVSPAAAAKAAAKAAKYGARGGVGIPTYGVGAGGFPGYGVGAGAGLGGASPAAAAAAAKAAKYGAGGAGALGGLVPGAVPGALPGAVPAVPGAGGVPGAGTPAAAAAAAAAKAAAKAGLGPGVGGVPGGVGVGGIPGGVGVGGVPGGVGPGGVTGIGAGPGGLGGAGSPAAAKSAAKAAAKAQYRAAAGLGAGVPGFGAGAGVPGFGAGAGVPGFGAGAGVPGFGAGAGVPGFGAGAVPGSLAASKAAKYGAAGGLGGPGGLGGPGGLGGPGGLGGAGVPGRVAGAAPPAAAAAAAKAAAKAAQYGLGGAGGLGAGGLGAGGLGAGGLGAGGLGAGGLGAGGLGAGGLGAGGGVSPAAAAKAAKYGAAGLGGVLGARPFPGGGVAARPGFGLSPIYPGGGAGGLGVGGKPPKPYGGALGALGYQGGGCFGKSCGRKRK
UniProt P54923: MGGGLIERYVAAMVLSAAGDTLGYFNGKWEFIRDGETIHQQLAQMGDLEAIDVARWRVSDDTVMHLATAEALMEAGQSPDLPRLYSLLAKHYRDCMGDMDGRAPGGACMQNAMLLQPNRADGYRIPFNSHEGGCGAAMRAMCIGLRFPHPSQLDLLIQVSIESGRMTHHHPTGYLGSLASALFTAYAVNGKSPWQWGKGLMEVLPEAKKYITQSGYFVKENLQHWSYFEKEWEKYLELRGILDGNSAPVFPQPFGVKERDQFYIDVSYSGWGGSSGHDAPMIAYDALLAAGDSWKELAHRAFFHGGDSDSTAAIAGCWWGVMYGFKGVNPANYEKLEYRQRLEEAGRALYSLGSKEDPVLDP
UniProt P56399: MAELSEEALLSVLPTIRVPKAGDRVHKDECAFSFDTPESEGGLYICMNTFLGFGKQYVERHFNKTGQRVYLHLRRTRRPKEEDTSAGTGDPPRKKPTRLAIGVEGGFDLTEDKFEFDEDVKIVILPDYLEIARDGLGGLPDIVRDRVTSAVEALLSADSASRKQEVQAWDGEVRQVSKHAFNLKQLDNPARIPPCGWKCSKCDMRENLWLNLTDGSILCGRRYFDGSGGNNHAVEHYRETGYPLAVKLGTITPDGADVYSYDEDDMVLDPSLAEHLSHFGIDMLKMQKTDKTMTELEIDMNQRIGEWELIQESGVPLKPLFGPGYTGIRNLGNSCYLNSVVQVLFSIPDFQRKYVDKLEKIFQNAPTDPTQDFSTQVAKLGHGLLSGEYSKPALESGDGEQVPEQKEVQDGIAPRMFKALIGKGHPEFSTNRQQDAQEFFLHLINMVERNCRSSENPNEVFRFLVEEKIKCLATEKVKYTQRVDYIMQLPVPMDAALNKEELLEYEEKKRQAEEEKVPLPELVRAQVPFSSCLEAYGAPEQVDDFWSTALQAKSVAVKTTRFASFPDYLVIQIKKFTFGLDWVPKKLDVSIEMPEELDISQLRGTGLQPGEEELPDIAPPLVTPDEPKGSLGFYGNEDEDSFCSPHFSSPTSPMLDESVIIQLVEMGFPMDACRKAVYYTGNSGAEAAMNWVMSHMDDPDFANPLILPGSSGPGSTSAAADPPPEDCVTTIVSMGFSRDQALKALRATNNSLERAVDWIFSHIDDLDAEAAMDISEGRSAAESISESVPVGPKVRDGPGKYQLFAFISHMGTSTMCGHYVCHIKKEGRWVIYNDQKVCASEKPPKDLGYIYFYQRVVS
UniProt P56390, whole entry: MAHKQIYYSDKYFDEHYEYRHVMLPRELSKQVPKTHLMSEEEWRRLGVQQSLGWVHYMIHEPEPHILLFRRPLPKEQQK

Each target was assayed with CN[C@@H]1C[C@H]2O[C@@](C)([C@@H]1OC)n1c3ccccc3c3c4c(c5c6ccccc6n2c5c31)C(=O)NC4 [staurosporine] (assay: log2 fold change of tryptic peptide abundance, ligand vs vehicle (limited proteolysis) (log2 ratio); higher = more trypsin-susceptible (destabilized)). Conditions: ligand concentration: 20 uM; sample: mouse liver crude lysate; replicate design: treated separately.

Target	log2 fold change
UniProt P61460 (peptide sequence: ALPTEEVR, peptide start residue: 510)	-0.117
UniProt P54099 (peptide sequence: LSADGEWLVK, peptide start residue: 976)	0.217
UniProt P58462 (peptide sequence: HLNSEHALDDR, peptide start residue: 354)	-1.16
UniProt P58466 (peptide sequence: VDDVYSVLR, peptide start residue: 247)	-0.718
UniProt P57780 (peptide sequence: RTIPWLEDRVPQK, peptide start residue: 312)	-0.478
UniProt P62869 (peptide sequence: ESSTVFELK, peptide start residue: 20)	-0.592
UniProt P57776 (peptide sequence: GVVQDLQQAISKLEAR, peptide start residue: 96)	-0.405
UniProt P54320 (peptide sequence: VAGAAPPAAAAAAAK, peptide start residue: 705)	0.256
UniProt P54923 (peptide sequence: GLMEVLPEAK, peptide start residue: 199)	0.0338
UniProt P56399 (peptide sequence: DGLGGLPDIVRDR, peptide start residue: 134)	-0.404
UniProt P56390 (peptide sequence: THLMSEEEWR, peptide start residue: 35)	0.0404

Reprinted from above (2 entries):
Target	log2 fold change
UniProt P54099 (peptide sequence: LSADGEWLVK, peptide start residue: 976)	0.217
UniProt P58462 (peptide sequence: HLNSEHALDDR, peptide start residue: 354)	-1.16
